Laboratory results: paper PMC3006391

Sequences of proteins named here, by UniProt entry; tags and fusion partners are left off.
UniProt Q07817: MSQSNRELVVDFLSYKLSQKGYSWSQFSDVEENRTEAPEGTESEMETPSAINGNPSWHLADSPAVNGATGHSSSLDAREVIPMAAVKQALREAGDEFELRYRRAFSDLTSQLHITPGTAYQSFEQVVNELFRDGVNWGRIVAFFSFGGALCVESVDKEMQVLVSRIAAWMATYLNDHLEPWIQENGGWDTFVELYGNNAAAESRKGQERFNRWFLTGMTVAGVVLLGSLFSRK

What was measured:
[1] = biological target: TAP-Bcl-xL, Q07817; assay: affinity purification with mass spectrometry; Tandem Affinity Purification from CHAPS (1%) extracts of total membranes of HeLa cells stably expressing TAP-Bcl-xL: IgG agarose, TEV cleavage, calmodulin resin, EGTA elution; most abundant Coomassie bands cut and identified by LC-MS/MS; TAP-stop cells as control; settings: remark: other sources report otherwise
[2] = biological target: TAP-Bcl-xL (UniProt Q07817); assay: as above

binding [1]: binds
B2: ATP synthase gamma chain, P36542-1 26-298 (protein)
chain: ATLKDITRRLKSIKNIQKITKSMKMVAAAKYARAERELKPARIYGLGSLALYEKADIKGPEDKKKHLLIGVSSDRGLCGAIHSSIAKQMKSEVATLTAAGKEVMLVGIGDKIRGILYRTHSDQFLVAFKEVGRKPPTFGDASVIALELLNSGYEFDEGSIIFNKFRSVISYKTEEKPIFSLNTVASADSMSIYDDIDADVLQNYQEYNLANIIYYSLKESTTSEQSARMTAMDNASKNASEMIDKLTLTFNRTRQAVITKELIEIISGAAALD

binding [2]: binds
B3: CDGSH iron sulfur domain 2 (protein, UniProt Q8N5K1 1-135)
chain: MVLESVARIVKVQLPAYLKRLPVPESITGFARLTVSEWLRLLPFLGVLALLGYLAVRPFLPKKKQQKDSLINLKIQKENPKVVNEINIEDLCLTKAAYCRCWRSKTFPACDGSHNKHNELTGDNVGPLILKKKEV

Continued, binder first:

B1: ATP synthase b subunit, P24539 43-256 (protein)
chain: PVPPLPEYGGKVRYGLIPEEFFQFLYPKTGVTGPYVLGTGLILYALSKEIYVISAETFTALSVLGVMVYGIKKYGPFVADFADKLNEQKLAQLEEAKQASIQHIQNAIDTEKSQQALVQKRHYLFDVQRNNIAMALEVTYRERLYRVYKEVKNRLDYHISVQNMMRRKEQEHMINWVEKHVVQSISTQQEKETIAKCIADLKLLAKKAQAQPVM
binding [1]: binds

B4: ATP synthase OSCP subunit, P48047 24-213 (protein)
chain: FAKLVRPPVQVYGIEGRYATALYSAASKQNKLEQVEKELLRVAQILKEPKVAASVLNPYVKRSIKVKSLNDITAKERFSPLTTNLINLLAENGRLSNTQGVVSAFSTMMSVHRGEVPCTVTSASPLEEATLSELKTVLKSFLSQGQVLKLEAKTDPSILGGMIVRIGEKYVDMSVKTKIQKLGRAMREIV
binding [1]: binds

These are yes or no findings as the source states them, for the method shown. Binding seen in cells or lysates may run through a third protein. These calls come from enrichment with a bait or labelling near it, and not all partners need be listed. One block for each binder: values may come before it.
